Assay results as given in ChEMBL document CHEMBL5032503, “Propranolol Activates the Orphan Nuclear Receptor TLX to Counteract Proliferation and Migration of Glioblastoma Cells” (J Med Chem, 2021).

System: T98G
Experiment: cells
Details: Homo sapiens, 72 h

SMILES: CC(C)NCC(O)COc1cccc2ccccc12 (racemic) [PROPRANOLOL]
- IC50: 75 µM
